Results reported in paper PMC6423756.
These are yes or no findings as the source states them, for the method shown. Binding seen in cells or lysates may run through a third protein. Some binding calls cover weakened binding; strength is not graded here.

Amino acid sequences for entries named in this document (tags omitted).
UniProt P67870: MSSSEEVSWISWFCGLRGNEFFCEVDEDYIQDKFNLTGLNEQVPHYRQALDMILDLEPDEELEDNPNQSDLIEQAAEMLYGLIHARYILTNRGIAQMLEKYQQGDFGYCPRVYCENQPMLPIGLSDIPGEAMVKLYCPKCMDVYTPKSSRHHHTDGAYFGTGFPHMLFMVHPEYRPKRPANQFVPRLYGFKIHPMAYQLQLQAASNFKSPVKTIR
UniProt Q9BWC9: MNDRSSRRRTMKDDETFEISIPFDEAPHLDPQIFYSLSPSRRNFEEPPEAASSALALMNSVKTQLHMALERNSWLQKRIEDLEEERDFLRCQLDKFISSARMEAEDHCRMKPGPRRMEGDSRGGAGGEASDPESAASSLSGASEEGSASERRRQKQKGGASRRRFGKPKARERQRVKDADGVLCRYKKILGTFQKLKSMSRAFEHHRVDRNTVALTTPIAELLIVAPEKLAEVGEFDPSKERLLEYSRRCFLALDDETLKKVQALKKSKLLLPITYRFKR

Legend:
[1] = target: endogenous CK2β protein (human (endogenous in HeLa)) (UniProt P67870); experiment: co-IP; endogenous proteins; HeLa lysates precipitated with murine anti-CK2β or preimmune murine IgG; blot with rabbit anti-CCDC106 and anti-CK2β
[2] = target: Myc-CCDC106 (wild-type CCDC106, coiled-coil domain-containing protein 106) (UniProt Q9BWC9); experiment: co-IP; HEK293 cells cotransfected with HA-CK2β and Myc-CCDC106, 24 h; lysates precipitated with rabbit anti-Myc antibody or preimmune rabbit IgG; blot with anti-Myc and anti-HA

| binding [1] | binding [2] | Substance |
| --- | --- | --- |
| binds |  | endogenous CCDC106 protein (from UniProt Q9BWC9 1-280) |
|  | binds | HA-CK2β (regulatory β subunit of protein kinase CK2) (from UniProt P67870 1-215) |
